Leishmania in macrophages: 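Cell assay of Leishmania donovani living inside macrophages; the read-out is not stated. Compounds at 30 µM. The record gives no direction; compounds that gave an IC50 in retests scored well above the rest, so higher reads as stronger inhibition. Size under these conditions: about 69,000 compounds, about 1,000 of them at 50% or above in at least one test.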
TcHisRS: 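Enzyme assay of histidyl-tRNA synthetase; the read-out is not stated. Target: Histidine-tRNA ligase, Trypanosoma cruzi CL Brener (UniProt Q4DA54). Concentration: 30 µM. Direction is inferred from retests: higher values go with stronger inhibition. Size under these conditions: about 69,000 compounds, about 31 of them at 50% or above in at least one test.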
ClpP1P2: 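Protease assay of ClpP1P2, read by the AMC dye that it sets free. Target: ClpP1P2, Mycobacterium tuberculosis (UniProt P9WPC5 and UniProt P9WPC3). Compounds at 50 µM. Higher reads as stronger inhibition, judged from the few compounds that gave an IC50. Most other retested compounds had strongly negative values. Of about 69,000 compounds tested this way, about 10 (0.015%) reached 50% or more in at least one test.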
Toxoplasma: 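Assay of Toxoplasma gondii numbers, read through their beta-galactosidase reporter with a colour substrate. Tested at 10 µM. Higher reads as fewer parasites (inferred from which compounds were picked for retests). About 67,000 compounds were tested under these conditions; 0.38% (about 260) showed 50% or more at least once.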
PfKRS1: 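Enzyme assay of the cytosolic lysyl-tRNA synthetase in 384-well plates, read by luminescence. Target: Lysine-tRNA ligase, Plasmodium falciparum 3D7 (UniProt Q8IDJ8). Concentration: 30 µM. Direction is inferred from only a few compounds that gave an IC50; most scored high, so higher reads as stronger inhibition. Size under these conditions: about 69,000 compounds, about 49 of them at 50% or above in at least one test.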

Protein sequences, listed by entry. Tags and fused reporters are not part of them. Residues count along the entry.
UniProt Q4DA54, 1-478: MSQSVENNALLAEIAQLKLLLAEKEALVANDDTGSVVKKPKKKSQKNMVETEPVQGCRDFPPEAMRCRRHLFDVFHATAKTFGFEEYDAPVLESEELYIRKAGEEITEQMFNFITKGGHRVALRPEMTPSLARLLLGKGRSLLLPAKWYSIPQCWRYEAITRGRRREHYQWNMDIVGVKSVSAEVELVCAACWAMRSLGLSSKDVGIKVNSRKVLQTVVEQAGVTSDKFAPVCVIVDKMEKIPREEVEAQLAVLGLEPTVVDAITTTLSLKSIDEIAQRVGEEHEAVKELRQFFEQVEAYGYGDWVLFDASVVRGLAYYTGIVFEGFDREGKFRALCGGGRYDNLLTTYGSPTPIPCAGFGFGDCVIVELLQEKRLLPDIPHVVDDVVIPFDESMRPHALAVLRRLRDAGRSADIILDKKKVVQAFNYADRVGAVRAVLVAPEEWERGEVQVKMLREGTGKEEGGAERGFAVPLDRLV
UniProt P9WPC5, whole entry: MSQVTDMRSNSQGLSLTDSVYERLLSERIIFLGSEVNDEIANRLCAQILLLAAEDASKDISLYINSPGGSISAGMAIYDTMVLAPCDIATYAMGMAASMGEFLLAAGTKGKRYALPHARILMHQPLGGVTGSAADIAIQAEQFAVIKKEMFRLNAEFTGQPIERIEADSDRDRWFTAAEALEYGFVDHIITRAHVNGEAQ
UniProt P9WPC3, whole entry partner: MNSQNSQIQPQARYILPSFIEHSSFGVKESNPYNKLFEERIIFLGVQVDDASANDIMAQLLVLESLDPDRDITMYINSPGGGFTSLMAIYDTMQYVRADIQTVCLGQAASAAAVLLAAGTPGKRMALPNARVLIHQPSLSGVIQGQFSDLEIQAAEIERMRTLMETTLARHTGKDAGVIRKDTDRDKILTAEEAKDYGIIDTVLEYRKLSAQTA
UniProt Q8IDJ8, 1-583: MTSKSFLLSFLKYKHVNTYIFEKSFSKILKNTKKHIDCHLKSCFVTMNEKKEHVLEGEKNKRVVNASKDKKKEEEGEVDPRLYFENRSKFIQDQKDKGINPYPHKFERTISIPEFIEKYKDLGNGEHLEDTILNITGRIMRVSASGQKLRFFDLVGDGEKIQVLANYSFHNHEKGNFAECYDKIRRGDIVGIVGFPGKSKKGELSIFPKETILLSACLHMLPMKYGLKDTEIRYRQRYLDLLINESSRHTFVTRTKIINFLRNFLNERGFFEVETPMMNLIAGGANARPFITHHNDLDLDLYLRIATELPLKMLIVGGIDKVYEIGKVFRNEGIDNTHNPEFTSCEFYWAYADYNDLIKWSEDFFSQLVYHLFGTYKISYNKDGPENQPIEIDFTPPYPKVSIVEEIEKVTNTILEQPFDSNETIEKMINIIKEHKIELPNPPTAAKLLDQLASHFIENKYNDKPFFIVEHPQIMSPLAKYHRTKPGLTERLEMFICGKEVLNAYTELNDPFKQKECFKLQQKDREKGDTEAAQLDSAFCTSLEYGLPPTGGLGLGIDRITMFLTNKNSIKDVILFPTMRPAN

Results are given as percent effect. The record does not define 0% and 100%; most values in the screen are far below 50% and negative numbers occur (in some assays of this library far below -100). The compounds are a random part of those screened. Two or more numbers in one place are separate tests of the same structure; such repeats can differ widely. A dash means the value is not listed here; it may have been measured.

| # | Compound | Leishmania in macrophages | TcHisRS | ClpP1P2 | Toxoplasma | PfKRS1 |
|---|---|---|---|---|---|---|
| 1 | `COc1cc2nc(C)n(CC(=O)NCC(C)C)c(=O)c2cc1OC` | 20.89 and -3.232 | 3.614 | -17.87 | -8.399 | 1.45 |
| 2 | `COc1ccc(C(C)N2CCC(CO)CC2)cc1Cl` (stereo not drawn) | -0.6834 | 4.598 | 6 | -2.608 | 6.614 |
| 3 | `CO[C@H]1COCCN(Cc2c[nH]c3ccccc23)C1` | -41.22 | 8.911 | -14.6 | 2.342 | 0.4281 |
| 4 | `COc1ccc(F)c(CN(CCCn2ccnc2)Cc2ccc(C)s2)c1` | - | 8.209 | 0.3465 | - | -3.372 |
| 5 | `CCn1cc(CN2CCCN(C(=O)C3(C)CCOCC3)CC2)cn1` | 28.73 | 0.6024 | -4.372 | -5.179 | 0.6737 |
| 6 | `CCN1CCC(N2CCC(c3nc(C)cc(C)n3)C2)CC1` (stereo not drawn) | 4.866 | 2.326 | -15.68 | 6.901 | -0.1287 |
| 7 | `CC(C)[C@H]1COC(=O)N1Cc1nccn1C(C)C` | 25.41 | 6.18 | -3.57 | -8.226 | 0.7791 |
| 8 | `O=C(NCCc1ccccn1)C1(n2cnnn2)CCCCC1` | -11.1 and 19.41 | 1.22 | -9.838 | 11.46 | 1.131 |
| 9 | `Cc1[nH]c2ccccc2c1-c1ccnc(NC[C@H](O)CO)n1` | -7.491 | -11.7 | 0.8389 | 15.34 | 0.3469 |
| 10 | `COCCO[C@@H]1C[C@H]2CN(C(=O)c3ccc(C)nc3)CCN2C1` | - | 2.703 | 17.44 | - | 10.18 |
| 11 | `CC(C)CN1CCC(NC(=O)c2ccc(F)cc2Cl)CC1` | 5.591 | 5.804 | -13.25 | -26 | 11.78 |
| 12 | `NC(=O)Nc1cc(Br)cnc1OCC(F)(F)F` | 1.255 | 5.882 | 1.789 | -8.043 | 1.048 |
| 13 | `CNS(=O)(=O)CC(=O)NC(C)Cc1ccc(Br)cc1` (stereo not drawn) | 29.32 | 3.415 | -8.767 | 0.6724 | 5.783 |
| 14 | `Cc1ccc(-n2ncc(C(=O)N3CCCC3c3cnn(C)c3)c2C)cc1` (stereo not drawn) | -9.022 | 0.5814 | -11.15 | 10.39 | -0.9056 |
| 15 | `Cn1ccnc1CN1CCc2onc(COCC3CC3)c2C1` | - | 6.145 | -8.337 | - | 6.284 |
| 16 | `COc1ccc(C2=NOC(CO)C2)cc1` (stereo not drawn) | 30.17 | -0.4464 | -25.01 | 9.611 | 2.659 |
| 17 | `CN1C(=O)CO[C@H](c2ccc(NC(=O)Cc3cccs3)cc2)[C@H]1CO` | 8.785 | 6.522 | -4.982 | -8.538 | 2.144 |
| 18 | `CCS(=O)(=O)N1CCC2(CC1)CCn1c(-c3cnn(C)c3)cnc12` | - | 10.97 | 2.038 | - | 5.01 |
| 19 | `c1ccc(-n2cc(CN3CCCC3Cn3cncn3)nn2)cc1` (stereo not drawn) | 7.41 | 5.07 | -16.18 | -31.48 | 0.1951 |
| 20 | `CCc1noc(CN(C)C(=O)C(C)(C)Oc2cccc(Cl)c2)n1` | 8.758 | 4.762 | 9.096 | -6.917 | 4.644 |
| 21 | `CCc1nnc(C2Cc3ccccc3CN2Cc2cc(C)on2)o1` (stereo not drawn) | 27.76 | 1.538 | -4.55 | 0.4327 | 3.167 |
| 22 | `CC(C)C(C(=O)O)c1cccc(Cl)c1` (stereo not drawn) | 8.458 | 7.143 | -5.751 | 7.735 | 8.577 |
| 23 | `CN1CC(c2ccccc2)C2(CCN(C(=O)c3cccn3C)CC2)C1=O` (stereo not drawn) | 0.4065 and -21.23 | 0 | -2.749 | -5.48 | 1.749 |
| 24 | `COCC1CC2(CCN(c3ccccn3)CC2)CN1C(C)C.O=C(O)C(F)(F)F.O=C(O)C(F)(F)F` (stereo not drawn) | 4.236 | - | - | 9.871 | - |
| 25 | `COCCN(Cc1cccs1)C(=O)C1CCCN(C(N)=O)C1` (stereo not drawn) | 10.25 | 4.902 | 11.79 | 2.257 | 2.97 |
| 26 | `CCN1CCC2(CC1)CC(NCc1ccncc1)c1ccccc1O2` (stereo not drawn) | - | 1.22 | -0.4268 | - | 0.4722 |
| 27 | `Cc1nc(C2CCCN2C(=O)CNS(C)(=O)=O)no1` (stereo not drawn) | 17.16 | 7.884 | 3.89 | 3.194 | 10.77 |
| 28 | `NC(=O)C1CCN(C(=O)c2ccn(-c3cccc(F)c3)n2)C1` (stereo not drawn) | 38.99 | 2.924 | -4.894 | -16.94 | 0.6195 |
| 29 | `CCc1nc(NCCCn2cccn2)c2c(n1)c(C)nn2C` | 21.78 | -2.732 | 9.731 | 7.651 | 2.461 |
| 30 | `CCC1CN(CC(=O)NCCN(CC)CC)c2ccccc2S1` (stereo not drawn) | 24.72 | 10.89 | -5.907 | 16.71 | 2.367 |
| 31 | `CCSc1cc(C(=O)NCc2ccccc2O)ccn1` | 52.62 | 0.8264 | -21.1 | 1.095 | 7.824 |
| 32 | `OCCN1CCCC(c2cccc(-c3ccccc3F)n2)C1` (stereo not drawn) | 4.242 | 1.13 | -9.286 | 5.795 | 1.432 |
| 33 | `O=C(N[C@H]1CN(c2ccncc2)C[C@@H]1C1CC1)C1CCOCC1` | -21.26 | 1.622 | -8.448 | 12.12 | 3.089 |
| 34 | `N#Cc1ccccc1C(=O)N1C[C@@H](CN2CCCCCC2)[C@@H](CO)C1` | 11.16 | 6.931 | -4.906 | 2.471 | 3.694 |
| 35 | `Nc1cc2c(nn1)CCN(C(=O)CC1CCCC1)C2` | 16.58 | 9.023 | -1.961 | - | 14.78 |
| 36 | `Cc1noc(C)c1C(=O)NCCN1CCN(c2ccccc2)CC1` | 6.243 | 4.865 | 7.331 | -7.39 | 0.1201 |
| 37 | `CCOCC1c2c(cnn2CC2CC2)CCN1C(=O)c1ccncn1.O=C(O)C(F)(F)F` (stereo not drawn) | -17.31 | - | - | -0.9043 | - |
| 38 | `CNC(=O)c1ccc(N(C)C2CCC2)nn1` | 39.59 | -2.809 | -10.14 | -0.7275 | -3.557 |
| 39 | `O=C(O)C(F)(F)F.O=C(O)C(F)(F)F.[H][C@@]12CCCO[C@]1([H])[C@H](N(C)Cc1cccnc1)CN2C(=O)CC1CC1` | -10.3 | - | - | 6.165 | - |
| 40 | `N#Cc1ccc(CN2CCc3sccc3C2)c(F)c1` | -34.06 | 2.128 | 10.38 | 0.6901 | 5.655 |
| 41 | `O=C(COC1CCCCC1)Nc1ccn(Cc2cccnc2)n1` | 19.95 | 3.158 | -5.296 | -6.889 | 5.229 |
| 42 | `Cc1cccc(C2CCCCCN2Cc2cn(C)nc2C)c1` (stereo not drawn) | 37.18 | 3.518 | 2.963 | 4.657 | 2.617 |
| 43 | `COc1ccc(CCN(C)C(=O)CN2C(=O)OC[C@@H]2C(C)C)cc1OC` | -10.7 | 1.739 | -6.133 | 10.73 | -4.718 |
| 44 | `CCOc1ncccc1C(=O)NCC(O)c1ccc(F)c(F)c1` (stereo not drawn) | 15.27 | -1.961 | -34.65 | 3.612 | 5.049 |
| 45 | `O=C(O)c1csc(S(=O)(=O)N2CCN(Cc3c(F)cccc3Cl)CC2)c1` | 13.96 | 2.941 | 13.82 | -1.242 | 1.302 |
| 46 | `O=C1CCC2(CCN(Cc3nccs3)CC2)N1Cc1ccccc1` | - | 6.011 | -2.787 | - | 2.49 |
| 47 | `CN(CC(=O)NS(=O)(=O)c1ccc(F)cc1)Cc1ccccc1` | -13.42 | -0.4926 | -8.337 | -0.2363 | 3.018 |
| 48 | `CNC(=O)[C@@H]1COC[C@H]2CN(C(=O)COc3ccccc3)C[C@H]21` | - | 4.301 | -4.655 | - | 5.312 |
| 49 | `CC(C)(C)C(=O)NCCc1cc(N2CCOCC2)nc(NC2CC2)n1` | 24.15 | 2.825 | -9.338 | 0.6165 | 1.222 |
| 50 | `CS(=O)(=O)NC[C@]1(O)CCN(C(=O)Cc2cccs2)C[C@H]1O` | 19.81 and 10.78 | 8.209 | -3.215 | 1.232 | -3.203 |
| 51 | `CC(C)(C)CC(=O)NCC(=O)Nc1ccn(Cc2cccnc2)n1` | 43.33 | 1.242 | 2.025 | -18.68 | 6.114 |
| 52 | `Cc1cnn(C2CCCN(C(=O)CCCOc3cccc(F)c3)C2)c1` (stereo not drawn) | -11.96 | 1.88 | -4.97 | -2.981 | -3.218 |
| 53 | `O=C(O)C(F)(F)F.[H][C@@]12C[C@H](C(=O)Nc3cccnc3)CN(C(=O)c3ccsc3)[C@]1([H])CCO2` | 28.6 | - | - | -3.797 | - |
| 54 | `O=C(NC1(c2nnn(CCO)n2)CCCC1)c1ccccc1` | 10.55 | 2.905 | -4.708 | -3.634 | 3.849 |
| 55 | `CC(=O)NC1CCCN(Cc2csc(-c3ncccn3)n2)C1` (stereo not drawn) | -20.53 | 5.539 | -27.5 | -13.25 | -1.275 |
| 56 | `COCC(=O)NCC1Cn2nnc(-c3ccoc3)c2CO1` (stereo not drawn) | 8.809 | 3.797 | -5.637 | -9.223 | 5.76 |
| 57 | `CN(C)CCCN(Cc1ccco1)Cc1ccnn1C1CCCCO1.O=C(O)CC(O)(CC(=O)O)C(=O)O` (stereo not drawn) | 4.065 | - | - | 15.28 | - |
| 58 | `O=C(CN1CCC[C@@H]1C(=O)O)NCCOc1cccc(C(F)(F)F)c1` | - | 10.97 | 4.997 | - | 4.4 |
| 59 | `CCc1nc2n(n1)CCCC2Nc1nc(C2CC2)ns1` (stereo not drawn) | 8.598 | 9.195 | -11.46 | - | 4.679 |
| 60 | `COc1cccc(OCC(=O)Nc2cc(C)cnc2OC)c1` | -7.958 | 6.061 | -0.3381 | 8.201 | -1.967 |
| 61 | `Cc1ncsc1C(=O)NCCNc1cnccn1` | -1.182 | 11.9 | 7.845 | -5.558 | 5.884 |
| 62 | `COc1nc(C)c(C(=O)N2CCC(C(O)Cc3ccccc3)CC2)s1` (stereo not drawn) | -8.925 | 3.483 | 2.842 | -9.144 | 0.8383 |
| 63 | `COC(=O)C(NC(=O)CCOC(C)C)c1cc(F)ccc1F` (stereo not drawn) | 14.55 | 4.571 | -4.844 | 7.155 | -0.2213 |
| 64 | `CCn1cc(CN2CCC(c3nnc(CN(C)C)n3CC)CC2)cn1` | 9.962 | 6.695 | 17.27 | -18.1 | -8.755 |
| 65 | `COC1CCN(CCNC(=O)C2CCCCC2)CC1` | 21.89 | 1.478 | -3.425 | 0.8269 | 7.001 |
| 66 | `CN1CCN(CC2CC2)C(=O)C12CCN(C(=O)c1ccnnc1)CC2.O=C(O)C(F)(F)F` | 10.16 and 17.91 | - | - | 21.42 | - |
| 67 | `COC(=O)N1CCC(CNC(=O)C2CC2)CC1` | -3.861 | 12.98 | -7.887 | 6.889 | 1.514 |

Repeated from the top, 4 entries:

Compound	Leishmania in macrophages	TcHisRS	ClpP1P2	Toxoplasma	PfKRS1
COc1cc2nc(C)n(CC(=O)NCC(C)C)c(=O)c2cc1OC	20.89 and -3.232	3.614	-17.87	-8.399	1.45
COc1ccc(C(C)N2CCC(CO)CC2)cc1Cl (stereo not drawn)	-0.6834	4.598	6	-2.608	6.614
CO[C@H]1COCCN(Cc2c[nH]c3ccccc23)C1	-41.22	8.911	-14.6	2.342	0.4281
COc1ccc(F)c(CN(CCCn2ccnc2)Cc2ccc(C)s2)c1	-	8.209	0.3465	-	-3.372

Measurements from “University of Dundee, Small-Polar-MMV Screening Library” (2021), ChEMBL document CHEMBL3988442.